Results: the supplement of paper PMC10849652
The list shows a part of the results.

The chains behind the UniProt entries cited, without tags or fusion partners. Where a name states a change or a piece, a line headed by the entry shows the natural chain unless it says otherwise.
UniProt Q9Y4W6: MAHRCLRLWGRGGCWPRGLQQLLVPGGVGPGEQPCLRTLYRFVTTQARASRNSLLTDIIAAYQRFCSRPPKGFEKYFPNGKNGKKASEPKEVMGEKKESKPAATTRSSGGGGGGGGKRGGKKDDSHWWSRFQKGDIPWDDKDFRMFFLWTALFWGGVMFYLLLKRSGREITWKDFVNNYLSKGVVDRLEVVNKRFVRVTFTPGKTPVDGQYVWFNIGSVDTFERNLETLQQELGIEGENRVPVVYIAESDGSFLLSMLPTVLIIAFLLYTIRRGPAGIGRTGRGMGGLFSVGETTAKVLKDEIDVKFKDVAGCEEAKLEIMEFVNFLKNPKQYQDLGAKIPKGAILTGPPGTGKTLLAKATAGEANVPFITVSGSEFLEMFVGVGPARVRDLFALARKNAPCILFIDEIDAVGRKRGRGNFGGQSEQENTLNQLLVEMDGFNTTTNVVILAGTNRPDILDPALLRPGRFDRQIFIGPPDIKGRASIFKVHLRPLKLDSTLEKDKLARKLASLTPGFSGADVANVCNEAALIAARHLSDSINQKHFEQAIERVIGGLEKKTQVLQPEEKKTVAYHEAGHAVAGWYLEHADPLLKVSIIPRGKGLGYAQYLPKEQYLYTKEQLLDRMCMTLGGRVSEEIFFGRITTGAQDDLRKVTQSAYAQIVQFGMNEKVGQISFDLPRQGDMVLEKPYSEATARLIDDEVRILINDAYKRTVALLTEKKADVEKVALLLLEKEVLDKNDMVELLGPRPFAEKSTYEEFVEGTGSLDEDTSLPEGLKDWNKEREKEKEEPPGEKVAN
UniProt Q8N302: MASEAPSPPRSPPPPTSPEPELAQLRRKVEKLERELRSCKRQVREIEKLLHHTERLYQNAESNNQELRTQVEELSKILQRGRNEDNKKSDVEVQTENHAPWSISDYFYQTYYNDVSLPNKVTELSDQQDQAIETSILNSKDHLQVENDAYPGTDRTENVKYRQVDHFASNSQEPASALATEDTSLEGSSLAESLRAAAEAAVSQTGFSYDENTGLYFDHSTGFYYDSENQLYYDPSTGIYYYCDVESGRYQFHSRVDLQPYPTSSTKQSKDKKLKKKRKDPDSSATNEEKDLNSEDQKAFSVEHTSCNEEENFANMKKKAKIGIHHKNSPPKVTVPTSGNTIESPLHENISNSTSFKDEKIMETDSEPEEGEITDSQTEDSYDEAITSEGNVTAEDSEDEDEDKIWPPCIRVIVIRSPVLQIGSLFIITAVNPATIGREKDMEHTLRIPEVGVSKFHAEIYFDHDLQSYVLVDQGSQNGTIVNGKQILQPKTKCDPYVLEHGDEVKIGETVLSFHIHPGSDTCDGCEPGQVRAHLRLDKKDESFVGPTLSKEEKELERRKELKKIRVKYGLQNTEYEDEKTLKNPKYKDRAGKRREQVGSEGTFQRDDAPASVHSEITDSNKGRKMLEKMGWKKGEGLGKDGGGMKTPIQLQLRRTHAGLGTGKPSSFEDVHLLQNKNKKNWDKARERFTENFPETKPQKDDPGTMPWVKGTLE
UniProt Q99943: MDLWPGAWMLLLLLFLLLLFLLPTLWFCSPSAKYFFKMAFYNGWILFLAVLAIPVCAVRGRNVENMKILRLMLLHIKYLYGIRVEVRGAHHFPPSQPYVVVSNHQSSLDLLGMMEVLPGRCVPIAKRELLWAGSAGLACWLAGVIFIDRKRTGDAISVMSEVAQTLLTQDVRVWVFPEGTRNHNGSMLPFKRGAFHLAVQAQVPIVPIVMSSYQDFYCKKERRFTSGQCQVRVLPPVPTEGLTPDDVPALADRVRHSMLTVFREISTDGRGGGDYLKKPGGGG
UniProt P13196: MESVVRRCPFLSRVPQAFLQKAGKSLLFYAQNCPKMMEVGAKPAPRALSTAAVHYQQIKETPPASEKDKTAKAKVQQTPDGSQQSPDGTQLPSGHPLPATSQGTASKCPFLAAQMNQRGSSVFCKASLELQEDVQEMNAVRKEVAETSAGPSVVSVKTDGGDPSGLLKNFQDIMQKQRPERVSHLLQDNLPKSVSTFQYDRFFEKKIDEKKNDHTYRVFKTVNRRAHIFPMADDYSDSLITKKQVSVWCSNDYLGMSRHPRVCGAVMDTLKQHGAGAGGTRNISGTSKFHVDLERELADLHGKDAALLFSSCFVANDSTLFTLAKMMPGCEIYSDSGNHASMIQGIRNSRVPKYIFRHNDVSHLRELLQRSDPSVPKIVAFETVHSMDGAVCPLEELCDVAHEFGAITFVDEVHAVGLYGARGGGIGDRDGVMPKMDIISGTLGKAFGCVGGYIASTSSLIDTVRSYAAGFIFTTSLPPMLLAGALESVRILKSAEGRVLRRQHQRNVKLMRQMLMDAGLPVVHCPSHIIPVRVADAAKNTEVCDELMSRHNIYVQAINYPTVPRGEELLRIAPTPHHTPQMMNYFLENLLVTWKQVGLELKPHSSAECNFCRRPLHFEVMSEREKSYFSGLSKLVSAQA
UniProt O94788: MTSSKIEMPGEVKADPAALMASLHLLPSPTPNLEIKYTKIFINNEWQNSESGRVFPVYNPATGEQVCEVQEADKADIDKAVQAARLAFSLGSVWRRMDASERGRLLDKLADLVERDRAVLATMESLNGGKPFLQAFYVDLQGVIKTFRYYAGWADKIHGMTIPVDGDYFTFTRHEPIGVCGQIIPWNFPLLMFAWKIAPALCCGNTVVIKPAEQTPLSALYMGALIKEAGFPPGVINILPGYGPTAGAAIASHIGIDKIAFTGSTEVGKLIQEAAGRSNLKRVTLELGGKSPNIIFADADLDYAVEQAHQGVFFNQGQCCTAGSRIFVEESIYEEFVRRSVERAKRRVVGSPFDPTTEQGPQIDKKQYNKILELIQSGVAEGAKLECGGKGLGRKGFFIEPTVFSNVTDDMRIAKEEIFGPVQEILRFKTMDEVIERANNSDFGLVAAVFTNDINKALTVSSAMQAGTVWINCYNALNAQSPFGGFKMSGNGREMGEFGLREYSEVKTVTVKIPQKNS
UniProt Q3LIE5: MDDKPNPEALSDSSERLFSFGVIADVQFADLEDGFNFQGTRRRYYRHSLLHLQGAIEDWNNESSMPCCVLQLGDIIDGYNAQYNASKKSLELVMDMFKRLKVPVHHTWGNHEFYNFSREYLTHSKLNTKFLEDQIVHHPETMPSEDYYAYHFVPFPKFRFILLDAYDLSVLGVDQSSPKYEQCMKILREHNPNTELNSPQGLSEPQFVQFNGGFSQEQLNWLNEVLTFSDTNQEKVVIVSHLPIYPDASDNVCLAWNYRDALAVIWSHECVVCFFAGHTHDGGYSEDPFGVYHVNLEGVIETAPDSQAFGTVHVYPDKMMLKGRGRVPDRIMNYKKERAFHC
UniProt Q9NX46: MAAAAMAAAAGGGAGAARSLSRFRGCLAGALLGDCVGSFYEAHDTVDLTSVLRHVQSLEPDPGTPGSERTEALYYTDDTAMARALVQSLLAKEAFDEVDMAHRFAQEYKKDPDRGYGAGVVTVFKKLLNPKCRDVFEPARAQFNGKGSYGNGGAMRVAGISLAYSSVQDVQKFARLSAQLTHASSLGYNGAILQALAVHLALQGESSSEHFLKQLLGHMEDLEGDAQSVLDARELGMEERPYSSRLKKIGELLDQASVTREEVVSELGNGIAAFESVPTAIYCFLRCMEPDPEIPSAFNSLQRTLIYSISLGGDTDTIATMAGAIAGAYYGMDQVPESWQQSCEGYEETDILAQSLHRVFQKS
UniProt Q6RW13: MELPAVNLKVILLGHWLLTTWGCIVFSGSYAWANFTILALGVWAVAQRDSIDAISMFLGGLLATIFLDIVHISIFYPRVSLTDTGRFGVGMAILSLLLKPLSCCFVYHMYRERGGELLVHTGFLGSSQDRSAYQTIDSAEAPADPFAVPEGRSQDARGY
UniProt P35612: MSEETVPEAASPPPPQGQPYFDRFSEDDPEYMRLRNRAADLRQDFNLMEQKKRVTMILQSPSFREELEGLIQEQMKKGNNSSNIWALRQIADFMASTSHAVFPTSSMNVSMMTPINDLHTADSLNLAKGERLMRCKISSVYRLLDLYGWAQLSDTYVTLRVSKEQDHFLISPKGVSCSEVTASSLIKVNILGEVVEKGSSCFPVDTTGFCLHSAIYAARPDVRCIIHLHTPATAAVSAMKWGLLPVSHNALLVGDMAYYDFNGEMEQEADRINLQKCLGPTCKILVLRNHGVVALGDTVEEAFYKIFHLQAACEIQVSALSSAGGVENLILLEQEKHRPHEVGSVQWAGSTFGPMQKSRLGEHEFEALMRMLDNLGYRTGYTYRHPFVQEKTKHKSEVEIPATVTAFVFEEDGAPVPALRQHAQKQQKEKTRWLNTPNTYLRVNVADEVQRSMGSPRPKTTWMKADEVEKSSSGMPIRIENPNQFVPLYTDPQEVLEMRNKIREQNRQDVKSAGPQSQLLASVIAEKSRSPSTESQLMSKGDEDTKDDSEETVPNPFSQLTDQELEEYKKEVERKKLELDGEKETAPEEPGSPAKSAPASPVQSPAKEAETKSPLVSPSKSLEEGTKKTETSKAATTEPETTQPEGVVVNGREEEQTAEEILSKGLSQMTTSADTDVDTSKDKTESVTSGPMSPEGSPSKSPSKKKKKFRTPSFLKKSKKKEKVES
UniProt P27144: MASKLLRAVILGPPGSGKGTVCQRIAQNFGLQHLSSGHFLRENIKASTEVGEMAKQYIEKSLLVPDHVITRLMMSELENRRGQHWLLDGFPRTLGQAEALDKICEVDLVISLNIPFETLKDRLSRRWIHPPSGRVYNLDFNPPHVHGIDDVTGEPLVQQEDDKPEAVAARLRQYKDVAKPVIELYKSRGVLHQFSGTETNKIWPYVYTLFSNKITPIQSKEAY
UniProt P49189: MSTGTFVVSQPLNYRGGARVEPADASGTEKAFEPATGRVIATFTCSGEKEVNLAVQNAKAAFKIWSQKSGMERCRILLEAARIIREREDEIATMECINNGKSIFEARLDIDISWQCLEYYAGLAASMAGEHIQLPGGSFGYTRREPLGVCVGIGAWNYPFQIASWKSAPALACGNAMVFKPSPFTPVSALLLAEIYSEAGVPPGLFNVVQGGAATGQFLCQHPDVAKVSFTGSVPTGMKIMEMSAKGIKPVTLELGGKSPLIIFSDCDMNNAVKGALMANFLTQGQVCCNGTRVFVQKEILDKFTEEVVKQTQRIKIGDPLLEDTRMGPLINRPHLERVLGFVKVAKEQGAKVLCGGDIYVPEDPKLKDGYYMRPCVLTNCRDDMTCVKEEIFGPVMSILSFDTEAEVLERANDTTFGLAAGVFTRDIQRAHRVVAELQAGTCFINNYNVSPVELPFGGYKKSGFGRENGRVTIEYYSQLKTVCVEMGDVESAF

Legend:
Experiment in all cases: log2 fold change, soluble protein after heating vs DMSO (PISA); higher = thermal stabilisation; K562 cells, 10 uM, 30 min; active = over 0.2 and 3.5 SD of the protein, either way, in both replicates (recomputed)
[1] = compound: C1=CC=C(C=C1)[C@H](COC2=CC3=C(C=C2)NC(=O)N3)NC(=O)C4=CC=CN(C4=O)CC5=CC(=C(C=C5)F)F
Summary of the method: (§1)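 Quantification of soluble protein used TMTpro 16plex LC-MS/MS, with channel sums equalised. Samples were the supernatant after 21,000xg for 90 min of pooled aliquots from K562 cells (2×10^6 cells/mL) treated with 10 μM compound for 30 min, heated for 3 min over 48°C-58°C, and extracted in PBS with 0.5% NP-40 at 4°C. Values, from duplicates, describe thermal stability against control samples on a log2 fold-change scale.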

[2] = compound: CC1=C(SC2=C1C(=N[C@H](C3=NN=C(N32)C)CC(=O)N)C4=CC=C(C=C4)Cl)C
Summary of the method: as §1

[3] = compound: CC1=C2C(=CC=C1)N=C(N(C2=O)C3=CC=CC=C3C)CN4C=NC5=C(N=CN=C54)N
Summary of the method: as §1

[4] = compound: Cc1sc2c(c1C)C(c1ccc(Cl)cc1)=N[C@@H](CC(=O)OC(C)(C)C)c1nnc(C)n1-2
Summary of the method: as §1

[5] = compound: c1ccc([C@@H]2C[C@H]2NC2CCNCC2)cc1
Summary of the method: as §1

Measured: log2 fold change

AFG3L2 (UniProt Q9Y4W6)
inactive: [1] -0.024 | [2] 0.043 | [3] 0.004 | [4] -0.022 | [5] 0.012

AGGF1 (UniProt Q8N302)
inactive: [1] -0.035

AGPAT1 (UniProt Q99943)
inactive: [1] -0.006 | [2] 0.075 | [3] 0.103 | [4] -0.032 | [5] 0.023

ALMS1 (UniProt Q8TCU4)
inactive: [1] 0.028

ALAS1 (UniProt P13196)
inactive: [1] -0.006

ALDH1A2 (UniProt O94788)
inactive: [1] 0.01 | [2] 0.034 | [3] 0.014 | [4] -0.042 | [5] 0

ADPRM (UniProt Q3LIE5)
inactive: [1] -0.005

ADPRHL2 (UniProt Q9NX46)
inactive: [1] -0.09 | [2] 0.08 | [3] 0.034 | [4] -0.057 | [5] -0.087

2 entries picked at random from those above:
AFG3L2 (UniProt Q9Y4W6)
inactive: [1] -0.024 | [2] 0.043 | [3] 0.004 | [4] -0.022 | [5] 0.012

ALAS1 (UniProt P13196)
inactive: [1] -0.006

Following part:

AGTRAP (UniProt Q6RW13)
inactive: [1] 0.001 | [2] 0 | [3] 0.022 | [4] -0.057 | [5] 0.073

ADD2 isoform 9 (UniProt P35612)
inactive: [1] 0.02

AK4 (UniProt P27144)
inactive: [1] -0.015 | [2] 0.068 | [3] 0.063 | [4] -0.065 | [5] 0.015

ALDH9A1 (UniProt P49189)
inactive: [1] 0.059 | [2] -0.193 | [3] 0.03 | [4] 0.098 | [5] 0.156
